PubChem BioAssay AID1671190 (National Center for Advancing Translational Sciences (NCATS), 2021)
In all, about 580,000 compounds went through this assay and about 6,100 (1.1%) were called active. Inconclusive results, whose numbers are uncertain, are shown with a selection of clear calls. Calls follow the shape of the dose curve; as a rule, active = well fitted inhibition curve with a large enough effect; inconclusive = small, poorly fitted or top-dose-only effect, or another doubt; inactive = no such curve, though single readings can be large or run the other way. A potency beside an inconclusive call is a rough fit, not a confirmed value.

Chains of the proteins cited; added tags and fusions are not shown.
UniProt P18054, whole entry, looked up: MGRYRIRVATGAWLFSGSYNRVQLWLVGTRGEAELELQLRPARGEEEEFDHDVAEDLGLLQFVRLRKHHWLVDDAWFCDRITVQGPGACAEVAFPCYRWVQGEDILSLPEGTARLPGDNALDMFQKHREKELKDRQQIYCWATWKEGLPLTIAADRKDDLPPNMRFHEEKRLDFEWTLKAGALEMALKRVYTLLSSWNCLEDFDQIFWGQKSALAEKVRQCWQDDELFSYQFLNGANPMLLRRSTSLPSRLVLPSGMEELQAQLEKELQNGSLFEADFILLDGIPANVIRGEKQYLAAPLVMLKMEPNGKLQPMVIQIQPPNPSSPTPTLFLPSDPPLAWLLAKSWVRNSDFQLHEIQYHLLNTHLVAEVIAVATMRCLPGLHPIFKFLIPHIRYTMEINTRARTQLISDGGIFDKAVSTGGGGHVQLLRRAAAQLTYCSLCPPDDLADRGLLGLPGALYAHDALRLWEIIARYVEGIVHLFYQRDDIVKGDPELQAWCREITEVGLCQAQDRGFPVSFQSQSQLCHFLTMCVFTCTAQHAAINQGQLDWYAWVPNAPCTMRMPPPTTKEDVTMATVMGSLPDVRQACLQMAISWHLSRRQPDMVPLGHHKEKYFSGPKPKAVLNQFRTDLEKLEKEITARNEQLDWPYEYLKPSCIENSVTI

target: Polyunsaturated fatty acid lipoxygenase ALOX12 (Homo sapiens) (UniProt P18054); experiment: Primary qHTS assay for inhibitors of human arachidonate 12S-lipoxygenase (ALOX12): Round 2; conditions: purified 12hLO, xylenol orange hydroperoxide absorbance; activity change, negative = inhibition: at 108 µM (top of the series) unless noted
Procedure, shortened: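 Hydroperoxide product was detected by ferrous iron/xylenol orange as the 573 to 405 nm absorbance ratio. Arachidonic acid at 40 uM (final) was turned over for 30 min at room temperature by 150 nM human 12hLO, pH 7.0 Hepes buffer, after 15 min compound preincubation.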
% is scaled to controls: 0 for no effect and ±100 for the full control effect; potency is read from the fitted curve at half-maximal effect.

Structure (SMILES)	Potency	activity change, negative = inhibition
O=C(O)C(C(=O)O)=C1C2CC3CC(C2)CC1C3	inconclusive: 3.55 µM [inhibitor, full curve, poor fit]	–
NC(=O)Cc1c[nH]c2ncc(-c3ccccc3C(F)(F)F)cc12	inconclusive: 56.2 µM [inhibitor, partial curve, poor fit]	–
Cn1cnnc1SCC(=O)Nc1ncc([N+](=O)[O-])s1	inconclusive: 39.8 µM [inhibitor, partial curve, poor fit]	–
Cc1cc(NCCCN2CCOCC2)n2c(nc3ccccc32)c1C#N	–	inactive: 0%
N#Cc1cccc(NC(=O)CNc2cccc(S(=O)(=O)N3CCCC3)c2)c1	–	inactive: -11.8%
CCCc1cc(N2CCC(N[C@@H]3CCNC3)CC2)nc(C)n1	inconclusive: 6.31 µM [inhibitor, partial curve]	–
O=C(COC(=O)c1ccc(F)cc1Cl)NCc1ccco1	inconclusive: 44.7 µM [inhibitor, partial curve, poor fit]	–
Oc1c(C(c2ccccn2)N2CCCCC2)cc(Cl)c2cccnc12 (centres undefined)	inconclusive: 25.1 µM [inhibitor, partial curve]	–
CC(C)C[C@@H](CN)NC(=O)c1nc[nH]c1C(=O)N[C@@H](C)C(=O)CNC[C@H](CC(C)C)NC(=O)c1nc[nH]c1C(=O)N[C@@H](Cc1ccccc1)C(=O)O	–	inactive: 5.34%
COc1ccc(Cl)cc1C(=O)NC1CCN(C(=O)c2cc3c(=O)[nH]c(C)cn3n2)CC1	–	inactive: 44.6%
CCN1CCN(C(=O)c2ccc(-c3nnc4ccc(NC(=O)C5CCC5)cn34)cc2)CC1	inconclusive: 31.6 µM [inhibitor, partial curve]	–
COc1ccc(C2C=C(c3ccccc3)Nc3nc(NS(=O)(=O)c4ccc(C)cc4)nn32)cc1 (centres undefined)	–	inactive: -27.7%
N#Cc1cccc(Cn2cnc3c(Cl)cc(Cl)cc3c2=O)c1	inconclusive: 35.5 µM [inhibitor, partial curve, poor fit]	–
Cc1ccc(Nc2nc(-c3c(C)nc4sccn34)cs2)cc1	active: 7.08 µM	–
Cc1nc(N2CCN(C(=O)c3ccco3)CC2)c2oc3ccccc3c2n1	–	inactive: 341%
CN(CC(=O)Nc1cccc(F)c1)CC(=O)Nc1ccccc1[N+](=O)[O-]	–	inactive: -2.65%
O=C(/C=C/c1ccccc1)NC(NC(=S)Nc1cccc(O)c1)C(Cl)(Cl)Cl (centres undefined)	inconclusive: 44.7 µM [inhibitor, partial curve, poor fit]	–
O=C(CC1C(=O)NCCN1Cc1ccc(Cl)c(F)c1)NC1CCC1 (centres undefined)	inconclusive: 50.1 µM [inhibitor, partial curve, poor fit]	–
CC(=O)NC(c1cccc(F)c1)c1nc(-c2ccc(N(C)C)cc2)cs1 (centres undefined)	inconclusive: 50.1 µM [inhibitor, partial curve]	–
Cc1occc1C(=O)NC1CCCN(Cc2ccc(Cl)cc2)C1 (centres undefined)	inconclusive: 50.1 µM [inhibitor, partial curve, poor fit]	–
CC(C)CN(CC(C)C)C(=S)NC1CCCCC1	–	inactive: -7.19%
Cc1ccc(OCC(=O)N(Cc2ccc(Cl)cc2)CC2CCCO2)cc1C (centres undefined)	inconclusive: 0.631 µM [inhibitor, full curve, poor fit]	–

Looked up above.
In activity change, negative = inhibition, Cc1nc(N2CCN(C(=O)c3ccco3)CC2)c2oc3ccccc3c2n1 has the entry inactive: 341%
In Potency, CC(=O)NC(c1cccc(F)c1)c1nc(-c2ccc(N(C)C)cc2)cs1 (centres undefined) has the entry inconclusive: 50.1 µM [inhibitor, partial curve]

Additional records:

Structure (SMILES)	Potency	activity change, negative = inhibition
CSc1ccc(/C=C2\CCn3c2nc2cc(C(=O)O)ccc2c3=O)cc1	inconclusive: 63.1 µM [inhibitor, partial curve, poor fit]	–
CNC(=O)NC(=O)C(Cl)c1ccccc1 (centres undefined)	inconclusive: 12.6 µM [inhibitor, full curve, poor fit]	–
Cc1ccc(-c2nc3cc(C)c(Br)c(C)n3c2Cc2ccsc2)cc1	inconclusive: 141 µM [inhibitor, partial curve, poor fit]	–
CCN1C(=O)[C@H]2[C@H]3CN=C(SCC(=O)c4ccccc4)N3[C@@](C)(C(=O)OC)[C@H]2C1=O	inconclusive: 39.8 µM [inhibitor, partial curve, poor fit]	–
CCOC(=O)[C@]12CCC=C1N(Cc1ccc(Cl)cc1Cl)C(=O)[C@H](CC(=O)NCc1ccc(C)o1)C2	inconclusive: 31.6 µM [inhibitor, partial curve]	–
O=C(Nc1nc(=O)c2ccccc2s1)c1ccccc1	inconclusive: 25.1 µM [inhibitor, full curve, poor fit]	–
CC[C@]12c3[nH]c4ccc(Cl)cc4c3CCN1C(=O)[C@@H](CC(=O)NC/C=C(\C)CCC=C(C)C)C[C@@H]2C(=O)N1CCN(C(=O)C2CC2)CC1	inconclusive: 39.8 µM [inhibitor, partial curve, poor fit]	–
O=C(/C=C1\C(=O)Nc2ccccc21)/C=C1\C(=O)Nc2ccccc21	active: 8.91 µM	–
O=S1(=O)CC(N2CCN(c3ncccn3)CC2)CN1Cc1ccc(F)cc1 (centres undefined)	inconclusive: 112 µM [inhibitor, single point]	–
CCSc1ncnc2c1sc1nc(-c3ccco3)c3c(c12)CC(C)(C)OC3	inconclusive: 112 µM [inhibitor, single point]	–
CCCCNC(=S)N/N=C/C=C(/C)CCC=C(C)C	inconclusive: 39.8 µM [inhibitor, partial curve, poor fit]	–
COc1ccc(CCNCc2c(-c3ccccc3)n(C)c3ccccc23)cc1	inconclusive: 0.631 µM [inhibitor, full curve, poor fit]	–
CC(C)Cc1cc(C[C@@H]2C[C@H](NC(=O)C3CCCC3)C2(C)C)no1	–	inactive: 3.3% [at 176 µM]
COc1cc(NC(=O)Nc2ccc3nc(N4CCOCC4)cc(C)c3c2)cc(OC)c1OC	inconclusive: 100 µM [inhibitor, single point]	–
COc1ccc(C(=O)N2CC(=O)Nc3ccc(C)cc3C2c2ccc(F)cc2)c(OC)c1 (centres undefined)	–	inactive: -28.7%
Cc1c(Cc2ccccc2)sc(NC(=O)c2ccco2)c1C(N)=O	–	inactive: -27.4%
COc1ccccc1C(=O)NCC(=O)NNC(=O)c1cccs1	–	inconclusive: -42.3% [inhibitor]
Cc1cc(Nc2ccc(N3CCC(C)CC3)cc2)n2ncnc2n1	inconclusive: 12.6 µM [inhibitor, full curve, poor fit]	–
CC(C)(C)[C@H]1COC(=O)[C@@H](NC(=O)OCC2c3ccccc3-c3ccccc32)C/C=C\C[C@@H](CC(=O)N[C@@H](CO)Cc2ccccc2)C(=O)N1	inconclusive: 0.316 µM [inhibitor, full curve, poor fit]	–
COc1ccc(COCC(O)CN2CCCC(C(F)(F)F)C2)cc1 (centres undefined)	inconclusive: 2 µM [inhibitor, full curve, poor fit]	–
O=C(O)c1csc(Cc2ccccc2)n1	inconclusive: 2 µM [inhibitor, full curve, poor fit]	–
CCCCCCSc1cccc(-c2nc3ccccn3c2NCc2ccccc2)c1	inconclusive: 44.7 µM [inhibitor, partial curve, poor fit]	–

Structure (SMILES)	Potency	activity change, negative = inhibition
CC(=O)Nc1cc(C(=O)N2CCN(c3ccccc3)CC2C)cc2ncn(CCc3ccccn3)c12 (centres undefined)	inconclusive: 126 µM [inhibitor, single point]	–
CC(C)(C)OC(=O)COc1cc(OCC(=O)OC(C)(C)C)c2c(=O)cc(-c3ccccc3)oc2c1	–	inactive: -12.1%
Cc1cc(Nc2cccc(F)c2)nc(-c2ccccc2)n1	–	inactive: -22.6%
COc1ccc(CC(=O)N2N=C(c3cccc(Br)c3)CC2(O)C(F)(F)F)cc1 (centres undefined)	active: 14.1 µM	–
Cc1ccc([C@H]2C[C@H](O)[C@@H](n3cc(-c4ccc(F)cc4)nn3)CN2C(=O)C2CCCCC2)cc1	inconclusive: 100 µM [inhibitor, partial curve, poor fit]	–
O=C(CSc1nc(=O)n2cc(Cl)ccc2n1)Nc1cccc2ccccc12	–	inactive: -25.9%
O=C(O)c1cc(S(=O)(=O)NC23CC4CC(CC(C4)C2)C3)ccc1Cl	inconclusive: 89.1 µM [inhibitor, single point]	–
COc1ccc(OCC(=O)N/N=C/c2cccn2-c2cccc(C(=O)O)c2)cc1	inconclusive: 44.7 µM [inhibitor, partial curve, poor fit]	–
C=CCOc1ccccc1CN(C(=O)CCl)c1ccc2c(c1)OCO2	inconclusive: 39.8 µM [inhibitor, partial curve, poor fit]	–
CCN1CCN(Cc2ccc(NC(=O)c3cc(NC(=O)c4cc(C)on4)cc(OC)c3)cc2C(F)(F)F)CC1	inconclusive: 15.8 µM [inhibitor, partial curve]	–
CCC(C)c1ccc(NC(=O)COc2c(F)c(F)c(C(F)(F)F)c(F)c2F)cc1 (centres undefined)	–	inactive: -9.09%
O=C(O)CCc1cc2n(n1)CCCN(C(=O)c1ccc3n[nH]nc3c1)C2	inconclusive: 14.1 µM [inhibitor, full curve]	–
CC(C)(C)c1ccc(O)c(NC(=O)c2cc[n+]([O-])cc2)c1	inconclusive: 44.7 µM [inhibitor, partial curve, poor fit]	–
Cc1ccc(-c2nnc(SC3=CS(=O)(=O)c4ccccc43)o2)cc1	inconclusive: 89.1 µM [inhibitor, single point]	–
CCOc1ccc(C(=O)N2CCC(c3nc(-c4ccc(S(=O)(=O)N5CCCC5)cc4)no3)CC2)cc1	–	inactive: -20.8%
Cc1nc2nc(SCC(=O)Nc3ccccc3C(C)(C)C)[nH]c2cc1Br	–	inactive: 14.7%
O=C(O)CN1C(=O)C(=O)N(Cc2ccc(Cl)cc2Cl)C1=O	inconclusive: 31.6 µM [inhibitor, partial curve, poor fit]	–
O=C(Nc1ccccc1)N1CCCN(Cc2c(F)cccc2Cl)CC1	–	inactive: 86.6%
CN1CCN(c2ccc(NC(=S)NC(=O)c3cccc4ccccc34)cc2)CC1	active: 28.2 µM	–
CN1C[C@@H](NC(=O)Nc2cccc(C#N)c2)C[C@H]1c1nc(-c2ccc(Cl)cc2)no1	inconclusive: 8.91 µM [inhibitor, full curve, poor fit]	–

Three records picked at random from those above:
Structure (SMILES)	Potency	activity change, negative = inhibition
Cc1ccc([C@H]2C[C@H](O)[C@@H](n3cc(-c4ccc(F)cc4)nn3)CN2C(=O)C2CCCCC2)cc1	inconclusive: 100 µM [inhibitor, partial curve, poor fit]	–
Cc1nc2nc(SCC(=O)Nc3ccccc3C(C)(C)C)[nH]c2cc1Br	–	inactive: 14.7%
O=C(O)CCc1cc2n(n1)CCCN(C(=O)c1ccc3n[nH]nc3c1)C2	inconclusive: 14.1 µM [inhibitor, full curve]	–
